These are yes or no findings as the source states them, for the method shown. In cells and extracts the contact can be indirect. Some results given as binding are weak or reduced against the parent protein; the word gives no strength.
Assays:
[1] = target: amyloid precursor protein (APP), transfected into HeLa or HEK293 cells (UniProt P05067); test: α-myc co-immunoprecipitation from co-transfected HeLa cells, Western blot
[2] = target: β-CTF (C-terminal fragment of APP made by β-secretase cleavage) (UniProt P05067); test: as above

Chains of the proteins cited; added tags and fusions are not shown. Lines headed by an entry give the natural chain unless they say otherwise; changes in a name come on top. Residues count along the entry.
UniProt P05067: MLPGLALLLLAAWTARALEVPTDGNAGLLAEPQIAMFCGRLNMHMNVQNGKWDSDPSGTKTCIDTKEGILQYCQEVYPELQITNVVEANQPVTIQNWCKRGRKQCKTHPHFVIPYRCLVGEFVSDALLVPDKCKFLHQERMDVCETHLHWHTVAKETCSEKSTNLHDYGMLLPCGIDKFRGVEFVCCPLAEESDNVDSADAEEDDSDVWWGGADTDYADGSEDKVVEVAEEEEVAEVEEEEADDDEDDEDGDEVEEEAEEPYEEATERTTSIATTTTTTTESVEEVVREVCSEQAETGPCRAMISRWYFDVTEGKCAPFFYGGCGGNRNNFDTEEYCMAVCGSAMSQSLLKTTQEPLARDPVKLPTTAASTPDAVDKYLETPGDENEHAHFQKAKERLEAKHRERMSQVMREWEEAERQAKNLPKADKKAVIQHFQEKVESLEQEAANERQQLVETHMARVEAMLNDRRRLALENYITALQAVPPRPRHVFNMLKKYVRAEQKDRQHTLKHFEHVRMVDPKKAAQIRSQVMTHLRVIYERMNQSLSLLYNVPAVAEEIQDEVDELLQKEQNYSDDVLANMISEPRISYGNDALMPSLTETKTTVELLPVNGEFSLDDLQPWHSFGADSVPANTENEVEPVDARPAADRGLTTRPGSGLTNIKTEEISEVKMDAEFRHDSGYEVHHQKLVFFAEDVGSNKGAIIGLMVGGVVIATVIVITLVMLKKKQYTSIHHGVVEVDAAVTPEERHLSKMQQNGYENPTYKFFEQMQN
amyloid precursor protein (APP), transfected into HeLa or HEK293 cells: residues 18-770 of P05067
β-CTF (C-terminal fragment of APP made by β-secretase cleavage): residues 672-770 of P05067

Substance: BRI2 (myc-tagged BRI2 constructs, full length and fragments progressively deleted from the COOH-terminus) (from UniProt A5A6H8 1-266)
- binding [1]: binds
- binding [2]: binds

— patent US20140314790A1, “CASPASE 9 INHIBITION AND BRI2 PEPTIDES FOR TREATING DEMENTIA” (ALBERT EINSTEIN COLLEGE OF MEDICINE OF YESHIVA UNIVERSITY, priority 2011, published 2014)
